According to paper PMC2995477:
Results are given in words; binding and its absence hold for the method and conditions named. Binding seen in cells or lysates may run through a third protein. Some binding calls cover weakened binding; strength is not graded here.

Amino acid sequences for entries named in this document (tags omitted). A change or cut given only in a name is not applied to a line headed by its entry. Chains listed by the source or under a name are the forms on record and can include a tag or linker. Residues count along the entry.
UniProt Q9BXM7: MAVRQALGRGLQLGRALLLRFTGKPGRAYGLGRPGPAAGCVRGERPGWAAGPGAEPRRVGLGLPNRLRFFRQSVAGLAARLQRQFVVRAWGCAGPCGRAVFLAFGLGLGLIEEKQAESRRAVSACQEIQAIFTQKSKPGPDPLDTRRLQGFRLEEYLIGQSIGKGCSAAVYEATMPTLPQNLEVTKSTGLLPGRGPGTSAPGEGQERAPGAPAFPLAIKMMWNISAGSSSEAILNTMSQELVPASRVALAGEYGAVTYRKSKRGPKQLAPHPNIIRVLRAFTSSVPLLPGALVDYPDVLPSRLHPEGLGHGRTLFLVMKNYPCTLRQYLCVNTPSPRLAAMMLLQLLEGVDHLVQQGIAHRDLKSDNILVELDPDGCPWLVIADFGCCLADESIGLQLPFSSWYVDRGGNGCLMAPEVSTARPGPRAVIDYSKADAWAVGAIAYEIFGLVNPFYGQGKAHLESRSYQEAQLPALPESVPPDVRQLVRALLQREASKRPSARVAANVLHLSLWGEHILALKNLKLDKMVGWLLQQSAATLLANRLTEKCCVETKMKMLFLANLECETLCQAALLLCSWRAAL
wildtype PINK1-flag: residues 78-581 of Q9BXM7
Δ151 PINK1: residues 152-581 of Q9BXM7
L347P PINK1 (Q9BXM7, form named): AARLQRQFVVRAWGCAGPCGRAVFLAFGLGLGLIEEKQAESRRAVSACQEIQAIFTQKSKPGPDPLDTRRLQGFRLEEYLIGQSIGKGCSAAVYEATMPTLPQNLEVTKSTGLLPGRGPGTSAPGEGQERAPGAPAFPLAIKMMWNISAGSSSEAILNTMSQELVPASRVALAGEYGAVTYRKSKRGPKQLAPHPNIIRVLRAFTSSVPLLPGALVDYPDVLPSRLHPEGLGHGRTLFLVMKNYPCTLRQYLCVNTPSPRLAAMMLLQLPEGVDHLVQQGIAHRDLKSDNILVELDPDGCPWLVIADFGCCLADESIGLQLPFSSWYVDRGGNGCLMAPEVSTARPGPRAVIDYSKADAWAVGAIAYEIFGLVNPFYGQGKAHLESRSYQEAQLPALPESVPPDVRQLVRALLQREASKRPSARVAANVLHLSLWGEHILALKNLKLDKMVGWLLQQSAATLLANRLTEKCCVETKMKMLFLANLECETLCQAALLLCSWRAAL
UniProt P00175: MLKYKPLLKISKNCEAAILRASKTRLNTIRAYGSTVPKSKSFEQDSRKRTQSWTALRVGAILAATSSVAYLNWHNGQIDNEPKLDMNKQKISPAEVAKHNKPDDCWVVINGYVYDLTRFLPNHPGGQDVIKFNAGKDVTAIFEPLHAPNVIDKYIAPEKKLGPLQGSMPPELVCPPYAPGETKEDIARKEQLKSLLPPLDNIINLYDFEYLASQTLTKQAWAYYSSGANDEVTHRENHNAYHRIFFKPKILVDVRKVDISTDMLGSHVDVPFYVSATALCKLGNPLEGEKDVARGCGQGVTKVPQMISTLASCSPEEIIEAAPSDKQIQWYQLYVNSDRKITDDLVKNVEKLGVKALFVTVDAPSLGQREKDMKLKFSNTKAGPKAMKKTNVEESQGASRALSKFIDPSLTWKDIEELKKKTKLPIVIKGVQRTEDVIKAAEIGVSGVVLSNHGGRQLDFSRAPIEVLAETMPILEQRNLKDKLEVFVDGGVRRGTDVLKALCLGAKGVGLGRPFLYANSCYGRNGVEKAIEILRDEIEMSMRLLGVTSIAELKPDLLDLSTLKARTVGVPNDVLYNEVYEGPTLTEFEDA
UniProt P08238: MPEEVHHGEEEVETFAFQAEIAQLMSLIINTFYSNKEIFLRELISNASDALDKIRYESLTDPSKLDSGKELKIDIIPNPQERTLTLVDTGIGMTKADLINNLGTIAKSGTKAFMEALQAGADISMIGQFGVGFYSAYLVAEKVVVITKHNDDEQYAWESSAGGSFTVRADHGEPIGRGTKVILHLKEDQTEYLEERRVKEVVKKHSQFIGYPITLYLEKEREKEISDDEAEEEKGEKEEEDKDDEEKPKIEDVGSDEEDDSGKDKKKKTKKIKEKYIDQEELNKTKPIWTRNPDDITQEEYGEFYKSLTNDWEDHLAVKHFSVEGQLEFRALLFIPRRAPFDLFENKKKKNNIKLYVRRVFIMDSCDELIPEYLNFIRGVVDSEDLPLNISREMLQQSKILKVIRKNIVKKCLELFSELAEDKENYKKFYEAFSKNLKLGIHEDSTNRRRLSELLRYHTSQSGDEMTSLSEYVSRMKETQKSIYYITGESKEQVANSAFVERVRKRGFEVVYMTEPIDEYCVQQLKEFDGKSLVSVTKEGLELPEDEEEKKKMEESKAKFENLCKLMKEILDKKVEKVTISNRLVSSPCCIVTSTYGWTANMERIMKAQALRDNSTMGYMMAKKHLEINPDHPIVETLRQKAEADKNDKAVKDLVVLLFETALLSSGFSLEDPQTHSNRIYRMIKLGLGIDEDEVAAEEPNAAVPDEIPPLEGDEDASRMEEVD

Key:
Assay in all cases: co-IP; transfected HeLa CCL-2 cells lysed in 1% Triton X-100 buffer (20 mM HEPES pH 7.5, 150 mM NaCl, 10% glycerol, 1 mM EDTA); rabbit anti-FLAG or anti-GFP immunoprecipitation at 4°C overnight, Protein A/G PLUS agarose, three washes; endogenous Hsp90 detected by blot
[1] = molecular target: L347P PINK1 (human) (UniProt Q9BXM7)
[2] = molecular target: mito-Δ151 PINK1 (yeast | human) (UniProt P00175+Q9BXM7)
[3] = molecular target: Δ151 PINK1 (human) (UniProt Q9BXM7)
[4] = molecular target: mito-L347P PINK1 (yeast | human) (UniProt P00175+Q9BXM7)
[5] = molecular target: wildtype PINK1-flag (human) (UniProt Q9BXM7)

binding [1]: binds weakly
binding [2]: binds
binding [3]: binds
binding [4]: binds weakly
binding [5]: binds
Substance: Hsp90 (from UniProt P08238 1-724)
